PMC8152475 (Biomedicines, 2021)
These are yes or no findings as the source states them, for the method shown. Binding seen in cells or lysates may run through a third protein. Some binding calls cover weakened binding; strength is not graded here. For some of these results: Sequences can lack the tags named with a protein.

Protein sequences, listed by entry. Tags and fused reporters are not part of them. Residues count along the entry.
UniProt P9WIN9, residues 24-228: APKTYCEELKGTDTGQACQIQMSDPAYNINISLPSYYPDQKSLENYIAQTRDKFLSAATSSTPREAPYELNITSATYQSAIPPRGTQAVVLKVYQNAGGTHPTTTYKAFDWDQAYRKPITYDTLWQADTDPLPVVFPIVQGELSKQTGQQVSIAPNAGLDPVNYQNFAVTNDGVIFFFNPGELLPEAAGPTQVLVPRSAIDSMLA
UniProt P14598: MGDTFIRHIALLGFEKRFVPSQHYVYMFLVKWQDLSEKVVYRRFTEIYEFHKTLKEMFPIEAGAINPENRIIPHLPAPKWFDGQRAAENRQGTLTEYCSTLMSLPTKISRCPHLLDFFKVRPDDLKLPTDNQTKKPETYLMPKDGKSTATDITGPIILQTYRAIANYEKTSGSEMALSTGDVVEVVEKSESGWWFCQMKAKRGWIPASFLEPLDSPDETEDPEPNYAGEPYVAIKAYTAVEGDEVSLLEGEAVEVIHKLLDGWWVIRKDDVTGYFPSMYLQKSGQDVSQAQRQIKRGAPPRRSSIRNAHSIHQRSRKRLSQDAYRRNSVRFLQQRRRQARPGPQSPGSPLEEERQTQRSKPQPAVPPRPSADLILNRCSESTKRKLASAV

T1: recombinant MPT63 (rMPT63) (Mycobacterium tuberculosis H37Rv) (UniProt P9WIP1)
T1 sequence: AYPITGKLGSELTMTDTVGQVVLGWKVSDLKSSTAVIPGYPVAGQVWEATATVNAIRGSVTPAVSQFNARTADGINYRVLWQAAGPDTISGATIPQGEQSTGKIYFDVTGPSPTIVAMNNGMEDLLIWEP

T2: GST-MPT63 (Mycobacterium tuberculosis) (UniProt P9WIP1)
T2 sequence: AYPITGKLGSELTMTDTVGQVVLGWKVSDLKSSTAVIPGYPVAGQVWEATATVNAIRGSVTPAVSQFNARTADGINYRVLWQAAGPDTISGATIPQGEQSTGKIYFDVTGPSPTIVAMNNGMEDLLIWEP

T3: GST-TBK1 (UniProt Q9UHD2)
T3 sequence: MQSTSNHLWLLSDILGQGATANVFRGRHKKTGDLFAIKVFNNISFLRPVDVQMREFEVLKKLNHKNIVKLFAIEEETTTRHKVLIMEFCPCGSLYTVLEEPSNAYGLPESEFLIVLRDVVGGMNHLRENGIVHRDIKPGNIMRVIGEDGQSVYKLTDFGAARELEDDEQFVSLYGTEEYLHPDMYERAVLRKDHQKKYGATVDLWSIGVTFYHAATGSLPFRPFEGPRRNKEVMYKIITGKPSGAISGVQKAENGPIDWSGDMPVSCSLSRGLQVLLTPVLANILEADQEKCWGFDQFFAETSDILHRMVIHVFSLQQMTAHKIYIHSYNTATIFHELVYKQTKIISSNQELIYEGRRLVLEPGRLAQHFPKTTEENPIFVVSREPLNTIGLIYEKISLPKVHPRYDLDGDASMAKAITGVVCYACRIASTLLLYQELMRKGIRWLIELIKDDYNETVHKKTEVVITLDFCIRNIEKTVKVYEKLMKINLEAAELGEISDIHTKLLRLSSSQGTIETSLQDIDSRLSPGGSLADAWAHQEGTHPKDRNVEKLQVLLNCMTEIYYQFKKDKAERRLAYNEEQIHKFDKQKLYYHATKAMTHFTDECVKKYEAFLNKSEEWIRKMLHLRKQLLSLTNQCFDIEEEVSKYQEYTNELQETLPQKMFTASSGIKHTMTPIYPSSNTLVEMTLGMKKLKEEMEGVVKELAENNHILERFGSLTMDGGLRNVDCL


Legend:
[1] = target: T1, recombinant MPT63 (rMPT63) (Mycobacterium tuberculosis H37Rv); test: co-IP; only the target purified
[2] = target: T2, GST-MPT63 (Mycobacterium tuberculosis); test: pull-down
[3] = target: recombinant MPT64 (rMPT64) (Mycobacterium tuberculosis H37Rv) (UniProt P9WIN9); test: co-IP; only the target purified
[4] = target: GST-MPT64 (Mycobacterium tuberculosis) (UniProt P9WIN9); test: pull-down
GST-p47phox = GST-p47phox (UniProt P14598); test: pull-down
GST-TBK1 = target: T3, GST-TBK1; test: pull-down

Row | Molecule | binding [1] | binding [3] | other results
1 | phosphorylated p47phox (S345 and S359), endogenous in THP-1 (from UniProt P14598 1-390) | binds |  | 
2 | Neutrophil cytosol factor 1 (p47phox), endogenous in THP-1 (from UniProt P14598 1-390) | binds |  | 
3 | V5-p47phox (from UniProt P14598 1-390) |  |  | binding [2]: binds
4 | TANK-binding kinase (TBK1), endogenous in THP-1 (protein, UniProt Q9UHD2 1-729) MQSTSNHLWLLSDILGQGATANVFRGRHKKTGDLFAIKVFNNISFLRPVDVQMREFEVLKKLNHKNIVKLFAIEEETTTRHKVLIMEFCPCGSLYTVLEEPSNAYGLPESEFLIVLRDVVGGMNHLRENGIVHRDIKPGNIMRVIGEDGQSVYKLTDFGAARELEDDEQFVSLYGTEEYLHPDMYERAVLRKDHQKKYGATVDLWSIGVTFYHAATGSLPFRPFEGPRRNKEVMYKIITGKPSGAISGVQKAENGPIDWSGDMPVSCSLSRGLQVLLTPVLANILEADQEKCWGFDQFFAETSDILHRMVIHVFSLQQMTAHKIYIHSYNTATIFHELVYKQTKIISSNQELIYEGRRLVLEPGRLAQHFPKTTEENPIFVVSREPLNTIGLIYEKISLPKVHPRYDLDGDASMAKAITGVVCYACRIASTLLLYQELMRKGIRWLIELIKDDYNETVHKKTEVVITLDFCIRNIEKTVKVYEKLMKINLEAAELGEISDIHTKLLRLSSSQGTIETSLQDIDSRLSPGGSLADAWAHQEGTHPKDRNVEKLQVLLNCMTEIYYQFKKDKAERRLAYNEEQIHKFDKQKLYYHATKAMTHFTDECVKKYEAFLNKSEEWIRKMLHLRKQLLSLTNQCFDIEEEVSKYQEYTNELQETLPQKMFTASSGIKHTMTPIYPSSNTLVEMTLGMKKLKEEMEGVVKELAENNHILERFGSLTMDGGLRNVDCL | binds | binds | 
5 | phosphorylated TBK1 (S172), endogenous in THP-1 (protein, UniProt Q9UHD2 1-729, phosphoserine at 172) MQSTSNHLWLLSDILGQGATANVFRGRHKKTGDLFAIKVFNNISFLRPVDVQMREFEVLKKLNHKNIVKLFAIEEETTTRHKVLIMEFCPCGSLYTVLEEPSNAYGLPESEFLIVLRDVVGGMNHLRENGIVHRDIKPGNIMRVIGEDGQSVYKLTDFGAARELEDDEQFVSLYGTEEYLHPDMYERAVLRKDHQKKYGATVDLWSIGVTFYHAATGSLPFRPFEGPRRNKEVMYKIITGKPSGAISGVQKAENGPIDWSGDMPVSCSLSRGLQVLLTPVLANILEADQEKCWGFDQFFAETSDILHRMVIHVFSLQQMTAHKIYIHSYNTATIFHELVYKQTKIISSNQELIYEGRRLVLEPGRLAQHFPKTTEENPIFVVSREPLNTIGLIYEKISLPKVHPRYDLDGDASMAKAITGVVCYACRIASTLLLYQELMRKGIRWLIELIKDDYNETVHKKTEVVITLDFCIRNIEKTVKVYEKLMKINLEAAELGEISDIHTKLLRLSSSQGTIETSLQDIDSRLSPGGSLADAWAHQEGTHPKDRNVEKLQVLLNCMTEIYYQFKKDKAERRLAYNEEQIHKFDKQKLYYHATKAMTHFTDECVKKYEAFLNKSEEWIRKMLHLRKQLLSLTNQCFDIEEEVSKYQEYTNELQETLPQKMFTASSGIKHTMTPIYPSSNTLVEMTLGMKKLKEEMEGVVKELAENNHILERFGSLTMDGGLRNVDCL | binds | binds | 
6 | hexokinase 2 (HK2), endogenous in THP-1 (protein, UniProt P52789 1-917) MIASHLLAYFFTELNHDQVQKVDQYLYHMRLSDETLLEISKRFRKEMEKGLGATTHPTAAVKMLPTFVRSTPDGTEHGEFLALDLGGTNFRVLWVKVTDNGLQKVEMENQIYAIPEDIMRGSGTQLFDHIAECLANFMDKLQIKDKKLPLGFTFSFPCHQTKLDESFLVSWTKGFKSSGVEGRDVVALIRKAIQRRGDFDIDIVAVVNDTVGTMMTCGYDDHNCEIGLIVGTGSNACYMEEMRHIDMVEGDEGRMCINMEWGAFGDDGSLNDIRTEFDQEIDMGSLNPGKQLFEKMISGMYMGELVRLILVKMAKEELLFGGKLSPELLNTGRFETKDISDIEGEKDGIRKAREVLMRLGLDPTQEDCVATHRICQIVSTRSASLCAATLAAVLQRIKENKGEERLRSTIGVDGSVYKKHPHFAKRLHKTVRRLVPGCDVRFLRSEDGSGKGAAMVTAVAYRLADQHRARQKTLEHLQLSHDQLLEVKRRMKVEMERGLSKETHASAPVKMLPTYVCATPDGTEKGDFLALDLGGTNFRVLLVRVRNGKWGGVEMHNKIYAIPQEVMHGTGDELFDHIVQCIADFLEYMGMKGVSLPLGFTFSFPCQQNSLDESILLKWTKGFKASGCEGEDVVTLLKEAIHRREEFDLDVVAVVNDTVGTMMTCGFEDPHCEVGLIVGTGSNACYMEEMRNVELVEGEEGRMCVNMEWGAFGDNGCLDDFRTEFDVAVDELSLNPGKQRFEKMISGMYLGEIVRNILIDFTKRGLLFRGRISERLKTRGIFETKFLSQIESDCLALLQVRAILQHLGLESTCDDSIIVKEVCTVVARRAAQLCGAGMAAVVDRIRENRGLDALKVTVGVDGTLYKLHPHFAKVMHETVKDLAPKCDVSFLQSEDGSGKGAALITAVACRIREAGQR |  | binds | 
7 | Flag-TBK1 (protein, UniProt Q9UHD2 1-729) MQSTSNHLWLLSDILGQGATANVFRGRHKKTGDLFAIKVFNNISFLRPVDVQMREFEVLKKLNHKNIVKLFAIEEETTTRHKVLIMEFCPCGSLYTVLEEPSNAYGLPESEFLIVLRDVVGGMNHLRENGIVHRDIKPGNIMRVIGEDGQSVYKLTDFGAARELEDDEQFVSLYGTEEYLHPDMYERAVLRKDHQKKYGATVDLWSIGVTFYHAATGSLPFRPFEGPRRNKEVMYKIITGKPSGAISGVQKAENGPIDWSGDMPVSCSLSRGLQVLLTPVLANILEADQEKCWGFDQFFAETSDILHRMVIHVFSLQQMTAHKIYIHSYNTATIFHELVYKQTKIISSNQELIYEGRRLVLEPGRLAQHFPKTTEENPIFVVSREPLNTIGLIYEKISLPKVHPRYDLDGDASMAKAITGVVCYACRIASTLLLYQELMRKGIRWLIELIKDDYNETVHKKTEVVITLDFCIRNIEKTVKVYEKLMKINLEAAELGEISDIHTKLLRLSSSQGTIETSLQDIDSRLSPGGSLADAWAHQEGTHPKDRNVEKLQVLLNCMTEIYYQFKKDKAERRLAYNEEQIHKFDKQKLYYHATKAMTHFTDECVKKYEAFLNKSEEWIRKMLHLRKQLLSLTNQCFDIEEEVSKYQEYTNELQETLPQKMFTASSGIKHTMTPIYPSSNTLVEMTLGMKKLKEEMEGVVKELAENNHILERFGSLTMDGGLRNVDCL |  |  | binding [2]: binds; binding [4]: binds
8 | Myc-MPT63 (protein, UniProt P9WIP1 30-159) AYPITGKLGSELTMTDTVGQVVLGWKVSDLKSSTAVIPGYPVAGQVWEATATVNAIRGSVTPAVSQFNARTADGINYRVLWQAAGPDTISGATIPQGEQSTGKIYFDVTGPSPTIVAMNNGMEDLLIWEP |  |  | binding (GST-p47phox): binds; binding (GST-TBK1): binds
9 | Flag-HK2 (protein, UniProt P52789 1-917) MIASHLLAYFFTELNHDQVQKVDQYLYHMRLSDETLLEISKRFRKEMEKGLGATTHPTAAVKMLPTFVRSTPDGTEHGEFLALDLGGTNFRVLWVKVTDNGLQKVEMENQIYAIPEDIMRGSGTQLFDHIAECLANFMDKLQIKDKKLPLGFTFSFPCHQTKLDESFLVSWTKGFKSSGVEGRDVVALIRKAIQRRGDFDIDIVAVVNDTVGTMMTCGYDDHNCEIGLIVGTGSNACYMEEMRHIDMVEGDEGRMCINMEWGAFGDDGSLNDIRTEFDQEIDMGSLNPGKQLFEKMISGMYMGELVRLILVKMAKEELLFGGKLSPELLNTGRFETKDISDIEGEKDGIRKAREVLMRLGLDPTQEDCVATHRICQIVSTRSASLCAATLAAVLQRIKENKGEERLRSTIGVDGSVYKKHPHFAKRLHKTVRRLVPGCDVRFLRSEDGSGKGAAMVTAVAYRLADQHRARQKTLEHLQLSHDQLLEVKRRMKVEMERGLSKETHASAPVKMLPTYVCATPDGTEKGDFLALDLGGTNFRVLLVRVRNGKWGGVEMHNKIYAIPQEVMHGTGDELFDHIVQCIADFLEYMGMKGVSLPLGFTFSFPCQQNSLDESILLKWTKGFKASGCEGEDVVTLLKEAIHRREEFDLDVVAVVNDTVGTMMTCGFEDPHCEVGLIVGTGSNACYMEEMRNVELVEGEEGRMCVNMEWGAFGDNGCLDDFRTEFDVAVDELSLNPGKQRFEKMISGMYLGEIVRNILIDFTKRGLLFRGRISERLKTRGIFETKFLSQIESDCLALLQVRAILQHLGLESTCDDSIIVKEVCTVVARRAAQLCGAGMAAVVDRIRENRGLDALKVTVGVDGTLYKLHPHFAKVMHETVKDLAPKCDVSFLQSEDGSGKGAALITAVACRIREAGQR |  |  | binding [4]: binds
